Measurements reported in PubChem BioAssay AID1224830 (NIAID, 2016)
This is a random part of about 18,000 deposited reagents. Of all reagents, about 2,900 (16%) are marked active. 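Calls are made per well; low scores hint the gene aids the LPS response, high scores that it dampens it.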 Repeated entries: four replicate wells of each siRNA pool.

- Screen: 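Regulators of TLR4 signalling towards TNF-alpha in macrophage-like cells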 (primary screen)
- Cells: human THP-1 monocytic leukaemia cells, TNF dual-luciferase reporter clone, PMA-differentiated to macrophage-like cells
- Reagents: siRNA pool against human genes, 50 nM
- Duration: LPS for 4 h, given about 3 days after siRNA transfection
- Conditions: bacterial LPS (TLR4 ligand), 10 ng/ml
- Read-out: 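Ratio of firefly to renilla light, scaled to the plate median and expressed as a robust z-score per replicate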
- Reading the numbers: TNF reporter robust z-score: higher = stronger TNF reporter response to LPS
- Hit rule: 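a well is active when its z-score exceeds 2.8 or falls below -1.5; control wells carry no call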

BTBD6 gave TNF reporter robust z-score 0.38; inactive.
Against BTBD6 the deposit lists TNF reporter robust z-score -0.94; inactive.
Against BTBD6, the entry reads TNF reporter robust z-score 0.01; inactive.
Silencing of BTBD6 gave: TNF reporter robust z-score -1.33; inactive.
Silencing of TINF2 gave: TNF reporter robust z-score -0.57; inactive.
With knock-down of TINF2, the record shows TNF reporter robust z-score -0.36; inactive.
With knock-down of TINF2, the record shows TNF reporter robust z-score 0.58; inactive.
With knock-down of TINF2 the results were TNF reporter robust z-score -0.17; inactive.

In a second layout: entries from further up.
gene	TNF reporter robust z-score	Outcome
TINF2	0.58	inactive
TINF2	-0.17	inactive

More reagents:
Depletion of ADAMTSL5 gave: TNF reporter robust z-score 2.05; inactive.
With knock-down of ADAMTSL5, the record shows TNF reporter robust z-score 1.2; inactive.
Knock-down of ADAMTSL5 came out at: TNF reporter robust z-score 0.94; inactive.
Knock-down of ADAMTSL5 gave: TNF reporter robust z-score 0.66; inactive.
For PPIA, the entry reads TNF reporter robust z-score 0.94; inactive.
After knock-down of PPIA the results were TNF reporter robust z-score 2.01; inactive.
For PPIA, the entry reads TNF reporter robust z-score 0.83; inactive.
For PPIA, the entry reads TNF reporter robust z-score 2; inactive.
After knock-down of KCNE5, the record shows TNF reporter robust z-score 0.94; inactive.
For KCNE5, the values are TNF reporter robust z-score 0.08; inactive.
With knock-down of KCNE5 the results were TNF reporter robust z-score 0.11; inactive.
Depletion of KCNE5 gave: TNF reporter robust z-score 2.11; inactive.
